Data: PMC4933460
No constants are given. Whether binding was seen depends on the method and setting. Some entries that bind do so weakly or less than the wild type.

The chains behind the UniProt entries cited, without tags or fusion partners. Residues count along the entry.
UniProt P18075, residues 293-431: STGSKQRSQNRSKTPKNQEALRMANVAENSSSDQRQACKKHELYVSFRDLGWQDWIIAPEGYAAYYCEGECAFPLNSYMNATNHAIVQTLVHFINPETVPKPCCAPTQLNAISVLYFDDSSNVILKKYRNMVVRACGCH

Molecular target: BMP-7 growth factor (GF) dimer (UniProt P18075)
Experiment: SPR; competition: PD variants (30-292, 65-292) immobilised at 500-800 RU, 100 nM BMP-7 GF injected with 0-500 nM soluble BMPRII extracellular domain, bound GF detected by a following injection of 100 nM monoclonal anti-BMP-7 GF antibody; HBS-EP; both purified

- binding: binds
B1: soluble extracellular domain of BMPRII receptor (receptor, UniProt Q13873 27-150)
chain: SQNQERLCAFKDPYQQDLGIGESRISHENGTILCSKGSTCYGLWEKSKGDINLVKQGCWSHIGDPQECHYEECVVTTTPPSIQNGTYRFCCCSTDLCNVNFTENFPPPDTTPLSPPHSFNRDET
